Record: PubChem BioAssay AID1259425 (University of Nebraska Medical Center, 2018)

- Aim: 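Compare each knockdown with KSR1 silencing using changes in marker transcripts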 (primary screen)
- Cell system: HCT116 human colon cancer cells
- Reagent: siRNA pool against human genes, 50 nM siRNA
- Read-out: 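After 50 nM siRNA pool, branched-DNA assay measures six marker transcripts per well, minus blank, normalised to the geometric mean of two housekeeping transcripts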
- Reading the numbers: BNIP3L mRNA: higher = more BNIP3L transcript after knockdown; NDRG1 mRNA: higher = more NDRG1 transcript after knockdown; BNIP3 mRNA: higher = more BNIP3 transcript after knockdown; ALDOC mRNA: higher = more ALDOC transcript after knockdown; ACSL5 mRNA: higher = more ACSL5 transcript after knockdown
Here is one part, drawn at random, of about 14,000 deposited reagents. No sequences are given here. The record does not give: the time to read-out.

no.	target	BNIP3L mRNA, set 1	NDRG1 mRNA, set 1	BNIP3 mRNA, set 1	ALDOC mRNA, set 1	ACSL5 mRNA, set 1
1	SCN4A (sodium voltage-gated channel alpha subunit 4)	0.149	0.22	0.349	0.0163	0.162
2	PARK7 (Parkinsonism associated deglycase)	0.273	0.33	0.501	0.0855	0.232
3	ATP10D (ATPase phospholipid transporting 10D (putative))	0.133	0.106	0.22	0.0159	0.198
4	UIMC1 (ubiquitin interaction motif containing 1)	0.155	0.133	0.596	0.0178	0.0985
5	SLC5A2	0.0866	0.147	0.322	0.0233	0.0782
6	E2F8 (E2F transcription factor 8)	0.197	0.756	0.346	0.0219	0.278
7	MAN1C1 (mannosidase alpha class 1C member 1)	0.168	0.382	0.289	0.0923	0.421
8	FGF7 (fibroblast growth factor 7)	0.0357	0.127	0.22	0.0107	0.119
9	ASH1L (ASH1 like histone lysine methyltransferase)	0.122	0.454	0.374	0.0107	0.149
10	SOX6 (SRY-box transcription factor 6)	0.176	0.243	0.553	0.0204	0.308
11	NPTXR (neuronal pentraxin receptor)	0.104	0.117	0.214	0.0177	0.347
12	MAK (male germ cell associated kinase)	0.0993	0.0653	0.304	0.00854	0.106
13	SPINK1 (serine peptidase inhibitor Kazal type 1)	0.123	0.126	0.202	0.0293	0.239
14	PARN (poly(A)-specific ribonuclease)	0.14	0.381	0.243	0.0165	0.26
15	TMEM106B (transmembrane protein 106B)	0.148	0.217	0.362	0.0523	0.166
16	KLHL36 (kelch like family member 36)	0.183	0.459	0.327	0.0217	0.233
17	GPATCH4 (G-patch domain containing 4 (gene/pseudogene))	0.161	0.225	0.352	0.0306	0.142
18	ABHD14B (abhydrolase domain containing 14B)	0.252	0.523	0.455	0.109	0.313
19	SEMA3B (semaphorin 3B)	0.261	0.281	0.437	0.055	0.273
20	BRAF (B-Raf proto-oncogene, serine/threonine kinase)	0.109	0.203	0.324	0.0145	0.342
21	KIAA0319L (KIAA0319 like)	0.0454	0.172	0.248	0.0202	0.185
22	RBM6 (RNA binding motif protein 6)	0.0732	0.102	0.235	0.0113	0.142
23	UST (uronyl 2-sulfotransferase)	0.085	0.0797	0.29	0.0304	0.036
24	MBTPS1 (membrane bound transcription factor peptidase, site 1)	0.108	0.194	0.264	0.0177	0.143
25	PPM1D (protein phosphatase, Mg2+/Mn2+ dependent 1D)	0.0543	0.195	0.228	0.0169	0.266
26	SLC22A4	0.126	0.13	0.2	0.0324	0.146
27	ITPRIP (inositol 1,4,5-trisphosphate receptor interacting protein)	0.0974	0.163	0.22	0.0372	0.291
28	PHLDB1 (pleckstrin homology like domain family B member 1)	0.0688	0.358	0.31	0.0526	0.137
29	INCENP (inner centromere protein)	0.085	0.355	0.164	0.0229	0.267
30	OR2C3 (olfactory receptor family 2 subfamily C member 3)	0.0948	0.11	0.361	0.015	0.207
31	ACBD3 (acyl-CoA binding domain containing 3)	0.154	0.224	0.448	0.143	0.279
32	CENPF (centromere protein F)	0.112	0.366	0.313	0.0241	0.219
33	SH3PXD2B (SH3 and PX domains 2B)	0.0997	0.175	0.334	0.0339	0.126
34	CCL24 (C-C motif chemokine ligand 24)	0.147	0.154	0.318	0.0489	0.22
35	SMR3B (submaxillary gland androgen regulated protein 3B)	0.438	0.772	0.403	0.0717	0.388
36	ERBB2 (erb-b2 receptor tyrosine kinase 2)	0.106	0.187	0.246	0.0187	0.258
37	DNASE1L2 (deoxyribonuclease 1 like 2)	0.0492	0.187	0.272	0.0172	0.118
38	SMC6 (structural maintenance of chromosomes 6)	0.194	0.343	0.454	0.0515	0.138
39	OXR1 (oxidation resistance 1)	0.0909	0.163	0.284	0.0302	0.17
40	CD28 (CD28 molecule)	0.118	0.242	0.21	0.0676	0.183
41	TAF9B (TATA-box binding protein associated factor 9b)	0.0968	0.12	0.203	0.0139	0.12
42	RPS27A (ribosomal protein S27a)	0.145	0.575	0.345	0.0197	0.186
43	MTA1 (metastasis associated 1)	0.123	0.441	0.433	0.0523	0.161
44	ITGB4 (integrin subunit beta 4)	0.0464	0.361	0.176	0.015	0.173
45	HHIPL2 (HHIP like 2)	0.0905	0.232	0.266	0.0251	0.196
46	PTPRC (protein tyrosine phosphatase receptor type C)	0.0627	0.156	0.232	0.0119	0.129
47	ATP5MC2 (ATP synthase membrane subunit c locus 2)	0.388	0.112	0.443	0.0618	0.43
48	TWNK (twinkle mtDNA helicase)	0.104	0.0546	0.165	0.0281	0.084
49	ZNF473 (zinc finger protein 473)	0.117	0.227	0.415	0.0603	0.22
50	CLPP	0.0321	0.129	0.247	-0.0106	0.123
51	NARF (nuclear prelamin A recognition factor)	0.141	0.47	0.429	0.034	0.256
52	RLF (RLF zinc finger)	0.112	0.205	0.291	0.0169	0.162
53	SFSWAP (splicing factor SWAP)	0.128	0.108	0.255	0.0108	0.166
54	GUCY2D (guanylate cyclase 2D, retinal)	0.149	0.24	0.232	0.0125	0.121
55	CD79B (CD79b molecule)	0.129	0.66	0.273	0.0181	0.365
56	KLHL14 (kelch like family member 14)	0.0795	0.182	0.439	0.025	0.277
57	C9orf78 (chromosome 9 open reading frame 78)	0.147	0.106	0.272	0.0141	0.156
58	MAP3K14 (mitogen-activated protein kinase kinase kinase 14)	0.116	0.0612	0.321	0.0143	0.0278
59	CCNJ (cyclin J)	0.0877	0.11	0.231	0.0179	0.151
60	OR3A2 (olfactory receptor family 3 subfamily A member 2)	0.194	0.321	0.3	0.0508	0.218
61	GPATCH2 (G-patch domain containing 2)	0.144	0.127	0.586	0.0287	0.246
62	CHEK1 (checkpoint kinase 1)	0.142	0.192	0.266	0.00717	0.497
63	BRINP2 (BMP/retinoic acid inducible neural specific 2)	0.0737	0.113	0.317	0.0151	0.112
